PubChem BioAssay AID1259290, Sanger Institute – 2017
Purpose: 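Identify kinases needed for colorectal cancer cell survival, with or without anchor drugs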 (primary screen). Cell system: human SNUC1 colorectal cancer cells. Reagents: siRNA pool against human genes. Treatment: anchor drugs BYL719 1 µM, cetuximab 5 µg/ml or trametinib 10 nM, or DMSO vehicle alone. Measurement: 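Viability averaged over replicates and scaled to non-targeting siRNA, robust z-score with no drug, and synergy scores by drug for BYL719, cetuximab and trametinib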. Reading the numbers: viability z-score, siRNA alone: higher = more viable cells; low values mean essential gene; viability vs control, siRNA alone: higher = more viable cells; synergy score with BYL719 and synergy score with Cetuximab and synergy score with Trametinib: higher = stronger synthetic lethal effect with drug. Hit rule: 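a knock-down without drug scoring a robust z under -3 counts as essential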. Calls: active = essential: knock-down alone cut viability (z below -3); inactive = no clear viability loss with knock-down alone.
Here is one part, drawn at random, of 794 deposited reagents. 9 of all reagents (1.1%) count as active. 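Calls rest on knock-down alone, not drug synergy; synergy above 0.15 was grouped apart and does not affect calls.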 Viability is capped at 1. No sequences are given here. The record does not give: the amount of reagent, the time to read-out.

target gene | viability z-score, siRNA alone | viability vs control, siRNA alone | synergy score with BYL719 | synergy score with Cetuximab | synergy score with Trametinib | outcome
NEK6 | 0.667 | 0.976 | -0.0475 | -0.0595 | -0.0207 | inactive
CKMT1B | 0.936 | 1 | -0.198 | -0.0447 | 0.0539 | inactive
MOS | 0.936 | 1 | 0.0397 | 0.0299 | 0.0963 | inactive
WHR1 | 0.457 | 0.957 | -0.233 | 0.00425 | -0.119 | inactive
STK17B | -1.94 | 0.741 | -0.0429 | -0.0818 | 0.115 | inactive
SPHK1 | -0.329 | 0.886 | -0.222 | -0.0292 | -0.0392 | inactive
PHKG1 | -1.63 | 0.769 | -0.156 | -0.156 | 0.0268 | inactive
PDXK | -0.106 | 0.906 | -0.273 | -0.000321 | -0.102 | inactive
PIK3C2G | -0.771 | 0.846 | -0.159 | 0.0484 | 0.0426 | inactive
CDC42BPA | 0.936 | 1 | -0.0748 | -0.0176 | -0.179 | inactive
ITPKA | -1.66 | 0.766 | -0.0458 | -0.0124 | 0.0445 | inactive
PI4K2A | 0.339 | 0.946 | -0.148 | -0.0602 | -0.0685 | inactive
TBX3 | -1.56 | 0.775 | -0.263 | 0.0989 | -0.164 | inactive
NME7 | 0.267 | 0.94 | 0.0456 | 0.045 | 0.0985 | inactive
DGKG | 0.936 | 1 | -0.198 | 0.0176 | -0.0929 | inactive
SMG1 | 0.00304 | 0.916 | -0.266 | -0.00711 | -0.0177 | inactive
PCK2 | 0.936 | 1 | -0.198 | 0.0142 | 0.00525 | inactive
THNSL1 | -0.103 | 0.906 | -0.24 | -0.0891 | -0.0165 | inactive
MAPKAPK2 | 0.245 | 0.938 | -0.179 | -0.0558 | -0.0793 | inactive
PFKP | 0.936 | 1 | -0.198 | -0.0447 | -0.0443 | inactive
RTN4 | 0.936 | 1 | -0.0923 | -0.0447 | 0.0858 | inactive
NEK8 | 0.44 | 0.955 | -0.0864 | -0.0524 | 0.00311 | inactive
PIM3 | -0.383 | 0.881 | -0.0731 | 0.0704 | 0.0308 | inactive
NADK | -1.64 | 0.768 | 0.0128 | 0.0465 | 0.0367 | inactive
PRKCI | 0.927 | 0.999 | -0.171 | -0.0456 | -0.0382 | inactive
ABL2 | -0.924 | 0.832 | 0.0363 | 0.0685 | -0.0182 | inactive
ULK4 | -1.6 | 0.772 | -0.205 | -0.0436 | -0.144 | inactive
PRKAB1 | -2.96 | 0.649 | -0.123 | 0.0446 | -0.211 | inactive
MINK1 | -2.79 | 0.665 | -0.129 | 0.102 | -0.165 | inactive
CSNK1E | -0.0892 | 0.908 | -0.272 | -0.133 | 0.00801 | inactive
MAPK7 | 0.538 | 0.964 | -0.159 | 0.06 | 0.011 | inactive
RPS6KA6 | -0.69 | 0.854 | -0.0893 | -0.0873 | -0.0522 | inactive
SPHK2 | -1.26 | 0.802 | -0.131 | -0.0774 | -0.0241 | inactive
PSKH1 | 0.936 | 1 | -0.198 | -0.0447 | -0.0216 | inactive

In a second layout: 4 of the entries above
target gene,"viability z-score, siRNA alone","viability vs control, siRNA alone",synergy score with BYL719,synergy score with Cetuximab,synergy score with Trametinib,outcome
PIM3,-0.383,0.881,-0.0731,0.0704,0.0308,inactive
NADK,-1.64,0.768,0.0128,0.0465,0.0367,inactive
PRKCI,0.927,0.999,-0.171,-0.0456,-0.0382,inactive
ABL2,-0.924,0.832,0.0363,0.0685,-0.0182,inactive
